Measured values: US20190152966A1 (INSTITUTE OF CANCER RESEARCH ROYAL CANCER HOSPITAL, published 2019)
No constants are given. Whether binding was seen depends on the method and setting. Some results given as binding are weak or reduced against the parent protein; the word gives no strength. Where a sequence is shown, tags or fusion partners need not be part of it.

The chains behind the UniProt entries cited, without tags or fusion partners. Residues count along the entry.
UniProt Q92743, residues 23-480: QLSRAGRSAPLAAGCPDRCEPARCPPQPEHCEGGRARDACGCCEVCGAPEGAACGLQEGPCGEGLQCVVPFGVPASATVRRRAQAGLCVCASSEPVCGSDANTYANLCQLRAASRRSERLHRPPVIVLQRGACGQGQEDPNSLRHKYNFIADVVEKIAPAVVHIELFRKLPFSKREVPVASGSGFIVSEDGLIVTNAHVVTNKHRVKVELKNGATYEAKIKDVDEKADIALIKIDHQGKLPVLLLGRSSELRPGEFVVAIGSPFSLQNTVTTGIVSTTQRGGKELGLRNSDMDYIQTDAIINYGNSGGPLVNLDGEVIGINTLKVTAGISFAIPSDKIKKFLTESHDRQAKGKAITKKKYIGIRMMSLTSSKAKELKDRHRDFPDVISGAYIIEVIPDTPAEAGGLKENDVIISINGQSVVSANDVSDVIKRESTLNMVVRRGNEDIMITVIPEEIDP

Key:
[1] = molecular target: HTRA1 (secreted serine protease) (human) (UniProt Q92743); test: pull-down of extracellular proteins from MDA-MB-231 culture medium with LOX-GFP, western blot (FIGS. 16 and 17)
[2] = molecular target: HTRA1 (secreted serine protease) (human) (UniProt Q92743); test: western blot; the HTRA1/GFP ratio indicates binding strength

binding [1]: binds
binding [2]: binds
B1: LOX-GFP (WT) (protein, mouse, UniProt P28301 22-411, looked up, not shown: large carriers)
chain: APQTPREPPAAPGAWRQTIQWENNGQVFSLLSLGAQYQPQRRRDPSATARRPDGDAASQPRTPILLLRDNRTASTRARTPSPSGVAAGRPRPAARHWFQAGFSPSGARDGASRRAANRTASPQPPQLSNLRPPSHIDRMVGDDPYNPYKYSDDNPYYNYYDTYERPRPGSRNRPGYGTGYFQYGLPDLVPDPYYIQASTYVQKMSMYNLRCAAEENCLASSAYRADVRDYDHRVLLRFPQRVKNQGTSDFLPSRPRYSWEWHSCHQHYHSMDEFSHYDLLDANTQRRVAEGHKASFCLEDTSCDYGYHRRFACTAHTQGLSPGCYDTYAADIDCQWIDITDVQPGNYILKVSVNPSYLVPESDYTNNVVRCDIRYTGHHAYASGCTISPY
